From paper PMC6225478, “Natural Scaffolds with Multi-Target Activity for the Potential Treatment of Alzheimer’s Disease” (Molecules : A Journal of Synthetic Chemistry and Natural …, 2018)
Entries after “also recorded” stand apart in the source; their conditions may differ.

experiment: Metal-ligand interaction by UV spectrophotometry, copper; type: physicochemical; conditions: pH 7.4, copper (II)/ligand 4:1; preliminary qualitative test

| Structure (SMILES) | Interaction with copper (II) (UV spectra) |
| --- | --- |
| Oc1c(I)cc(Cl)c2cccnc12 [Clioquinol, reference compound] | well-known chelating compound |
| CC[C@H](C)[C@@H]1NC(=O)C(C(C)=O)=C1O [Compound 1, Tenuazonic acid] | possible interaction; also recorded: capability of interaction with copper (II) |
| COc1c(C)c2c(c(O)c1C/C=C(\C)CCC(=O)O)C(=O)OC2 [Compound 3, Mycophenolic acid] | possible interaction; also recorded: capability of interaction with copper (II) |
| COc1cc(O)c2c(c1)C[C@@H](C)OC2=O [Compound 4, 6-Methoxymellein] | possible interaction |
